For at least one compound, name, drawing or mass did not settle the structure.
Experiments:
[1] = Organ/tissue weights on T28; format: in vivo, CD-1 mice; conditions: 0.2 mg/kg BID, vs vehicle
Procedure: On T28, after 4 hours of fasting, a terminal sampling of blood and organs/tissues was performed on anaesthetized mice (by a mixture of Ketamine/Xylazine, 80/10 mg/kg). A large blood sample was collected by cardiac puncture, and the following organ/tissues were collected, weighed, snap-frozen in liquid nitrogen and stored at −80° C. for further analyses: […]

[2] = Body composition (minispec Analyzer, TD-NMR); format: in vivo, CD-1 mice; conditions: 0.2 mg/kg BID
Procedure: For body composition analyses, a minispec Analyzer (LF90II, Bruker, Germany) was used. The LF90II provides an accurate measure of the whole-body lean mass, fat mass and free fluid mass in living and vigil animals.
Body composition was measured using a minispec Analyzer (LF90II, Bruker, Germany) one (1) day before treatment start on habituation day 7 (H7) and on treatment day 13 (T13) and treatment day 25 (T25) of Treatment days. Briefly, each mouse was placed in a red clear plastic tube sealed by a plunger. Then, the tube was inserted into the minispec Analyzer for measurement of body composition (˜ 2 min/measurement). Once the measurement completed, the mouse was removed from the plastic tube and immediately replaced into its cage. The tube and the plunger were washed and dried between each mouse. As a reminder, the Minispec analyser allows fast and precise measurements of fat tissue (g) (adipose tissue), lean tissue (g) (mainly muscles) and free fluid content (g). It should be noted that each measurement was performed just prior to a METABOpack™ session in order to normalize the respiratory exchanges-related parameters of each mouse by its lean mass (see METABOpack™ session section).
General Methods: Naive CD-1 mice were treated subcutaneously (SC) for 4 weeks at ambient temperature with BIO89-100 at doses of 0, 0.3, 1.0 and 3.0 mg/kg (3qW×4 weeks) or with liraglutide at 0.2 mg/kg (BID×4 W; SC). BW and FC were measured daily throughout the treatment period. To investigate the impact of BIO89-100 on energy expenditure, the respiratory exchanges (VO2 and VCO2) were recorded during 3 distinct sessions of METABOpack™, a multiparametric approach allowing an automated and simultaneous recording of FC, water intake, respiratory exchanges and spontaneous activity. Meal pattern analysis was conducted on the high-resolution recordings of FC. The body composition (fat, lean and fluid masses) was analyzed 3 times during the study by the mean of Time-Domain Nuclear Magnetic Resonance (TD-NMR).

[3] = Indirect calorimetry: VO2, VCO2, EE, RER (METABOpack sessions); format: in vivo, CD-1 mice; conditions: 0.2 mg/kg BID; for RER / VCO2 / EE / VO2: vs vehicle
Procedure: The Physiocage System allows recording the O2 consumption (VO2) and the CO2 production (VCO2) by indirect calorimetry. For each animal, both VO2 and VCO2 were recorded for 3 min every 30 minutes and the mean values were calculated by the system.
Energy Expenditure (EE) and Respiratory Exchange Ratio (RER) were calculated with formulas that are based on VO2 and VCO2 values: […]
Analysis of these parameters was performed as follows: for each mouse, the mean values were calculated from the corresponding recordings for each nycthemeral phase (Diurnal Phase or DP, Nocturnal Phase or NP and Whole day or WD). The means per nycthemeral phase were then calculated for each group for statistical comparisons.

[4] = Food intake and meal pattern (daily and METABOpack sessions); format: in vivo, CD-1 mice; conditions: 0.2 mg/kg BID
Description: (§1) During the METABOpack™ sessions, animals were housed singly in the Physiocage System (Panlab/Harvard apparatus), which was composed of: • 8 physiocages (LE1301) • 8 Air tight lids for mouse (LE1303) • 8 grid floors for mouse (LE1317) • 8 Feeding bottles for mouse (LE1306) • 2 Air supply and switching units for up to 4 home cages each (LE4004FL) • 1 O2/CO2 analyzer (LE405) • 1 acquisition software suite, METABOLISM (V3.0).
From T1 to T28, vehicle and 89BIO100 (at the 3 different doses) were administrated by subcutaneous (SC) injection three times a week, while the treatment with liraglutide was administrated by subcutaneous route, twice a day, every day. It was important to notice that the first dosing was done just before the […] (at 9:00 AM) and the second dosing was done 8 hours after the first one (at 5:00 PM). Throughout the treatment period, FI and BW were daily measured.
(§2) In the present project, a METABOpack™ session was consisted of a 12-hour period of acclimation followed by a 48-hour period of recording of the respiratory exchanges, FI, water intake (WI) and locomotor activity of each animal.
(§3) Following this acclimation period, the parameters cited above were automatically and simultaneously recorded for 48 hours, except for body weight that was measured manually every day.
(§4) The METABOpack™ sessions were conducted at the start (T1-2), the middle (T14-15) and the end (T26-27) of the treatment period.
Meal pattern analysis was performed on high-resolution recordings of food intake obtained during the METABOpack™ sessions. The Physiocage system allowed recording food intake with an accuracy of 1 measure per second and a precision of 0.02 g. The physiocages were equipped with a system allowing to precisely collect the spillage of the animals, by the mean of a platform located under the food dispenser. This platform and the spillages it contains, were permanently weighted by the system and the values added to the total weight of the food dispenser. With this system, the progressive decrease in the food dispenser net weight only reflected the food consumption of the animals. The analysis was performed by plotting data every minute. Each weight variation of the feeding container (transition from one stable value to another) was considered as a “bout”, with each bout separated from each other bout by an “inter-bout interval”. A meal consisted of at least one bout, with each meal separated from each other meal by a “post-meal interval”. For the purpose of this study, a meal was defined as any feeding episode causing a change in food weight of 0.02 g and separated by at least 5 min from any subsequent episode. Based on this criterion, the following parameters were calculated for each experimental group: […]

[5] = Water intake (METABOpack sessions); format: in vivo, CD-1 mice; conditions: 0.2 mg/kg BID, vs vehicle; for cumulative water intake: over 24 h;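 on cumulative water intake: water intake recorded in mL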
Description: as §1, §2, §3, §4

[6] = Body weight of CD-1 mice, 4-week SC treatment; format: in vivo
Procedure: Detailed Methods: Adult male CD-1 mice at 6 weeks of age at receipt (with an expected weight of 35-39 g) were purchased from Charles River (St Germain sur l'Arbresle, France). From receipt, mice were singly housed and allowed ad libitum access to water and to a control diet (pellet A04; SAFE, Villemoisson-sur-Orge, France), unless otherwise noted (see Section D.). Throughout the study, animals were maintained in an ambient temperature (22.0±1.0° C.) and humidity (40-50%) controlled room on a 12-h light/12-h dark cycle (9:00 PM: Light ON/9:00 AM Light OFF).
At receipt and until the end of the experiment, all animals fed the control diet (A04 pellet). […]
From T1 to T28, vehicle and 89BIO100 (at the 3 different doses) were administrated by subcutaneous (SC) injection three times a week, while the treatment with liraglutide was administrated by subcutaneous route, twice a day, every day. […] Throughout the treatment period, FI and BW were daily measured.
General Methods: Naive CD-1 mice were treated subcutaneously (SC) for 4 weeks at ambient temperature with BIO89-100 at doses of 0, 0.3, 1.0 and 3.0 mg/kg (3qW×4 weeks) or with liraglutide at 0.2 mg/kg (BID×4 W; SC). BW and FC were measured daily throughout the treatment period. […] The body composition (fat, lean and fluid masses) was analyzed 3 times during the study by the mean of Time-Domain Nuclear Magnetic Resonance (TD-NMR).

[7] = Semi-fasted blood glucose (4 hours of fasting); format: in vivo, CD-1 mice; conditions: 0.2 mg/kg BID, vs vehicle

CCCCCCCCCCCCCCCC(=O)N[C@@H](CCC(=O)NCCCC[C@H](NC(=O)[C@H](C)NC(=O)[C@H](C)NC(=O)[C@H](CCC(N)=O)NC(=O)CNC(=O)[C@H](CCC(=O)O)NC(=O)[C@H](CC(C)C)NC(=O)[C@H](Cc1ccc(O)cc1)NC(=O)[C@H](CO)NC(=O)[C@H](CO)NC(=O)[C@@H](NC(=O)[C@H](CC(=O)O)NC(=O)[C@H](CO)NC(=O)[C@@H](NC(=O)[C@H](Cc1ccccc1)NC(=O)[C@@H](NC(=O)CNC(=O)[C@H](CCC(=O)O)NC(=O)[C@H](C)NC(=O)[C@@H](N)Cc1cnc[nH]1)[C@@H](C)O)[C@@H](C)O)C(C)C)C(=O)N[C@@H](CCC(=O)O)C(=O)N[C@@H](Cc1ccccc1)C(=O)N[C@H](C(=O)N[C@@H](C)C(=O)N[C@@H](Cc1c[nH]c2ccccc12)C(=O)N[C@@H](CC(C)C)C(=O)N[C@H](C(=O)N[C@@H](CCCNC(=N)N)C(=O)NCC(=O)N[C@@H](CCCNC(=N)N)C(=O)NCC(=O)O)C(C)C)[C@@H](C)CC)C(=O)O [Liraglutide, reference compound]
weight of eWAT [1]: decreased | fat mass ([2]; overall): decrease in fat mass | fat mass (g) ([2]; T13, vs vehicle): significantly decreased | fluid mass (g) ([2]; T13, vs vehicle): decreased | lean mass (g) ([2]; T13, vs vehicle): no significant difference | fat mass (g) ([2]; T25, vs vehicle): significantly decreased | energy expenditure ([3]; overall): did not affect | RER ([3]; T1, NP and WD): decreased | VCO2 ([3]; T1, NP only): decreased | EE ([3]; T2): no significant difference | VO2 ([3]; T2): no significant difference | EE ([3]; T14): no significant difference | VCO2 ([3]; T14): no significant difference | VO2 ([3]; T14): no significant difference | RER ([3]; T14, WD): increased | EE ([3]; T15): no significant difference | VCO2 ([3]; T15): no significant difference | VO2 ([3]; T15): no significant difference | EE ([3]; T27): no significant difference | VCO2 ([3]; T27): no significant difference | VO2 ([3]; T27): no significant difference | food consumption ([4]; overall): did not affect | cumulative food intake ([4]; T1, vs vehicle): did not reveal significant difference | mean satiety ratio ([4]; T1, WD and NP, vs vehicle): increased | cumulative food intake ([4]; T2, vs vehicle): did not reveal a significant difference | mean post-meal interval ([4]; first meal on T14, vs vehicle): decrease in mean post-meal interval | mean first meal latency ([4]; first meal on T15, vs vehicle): decrease | mean post-meal interval ([4]; first meal on T15, vs vehicle): decrease | mean water intake ([5]; T1, NP and WD): decreased | cumulative water intake ([5]; T2): did not reveal a significant difference | mean water intake ([5]; T2, whatever the phase): no significant difference | cumulative water intake ([5]; T14): did not reveal any significant difference | mean water intake ([5]; T14, whatever the phase): no significant difference | cumulative water intake ([5]; T15): did not reveal any significant difference | cumulative water intake ([5]; T26): did not reveal any significant difference | mean water intake ([5]; T26, whatever the phase): no significant difference | cumulative water intake ([5]; T27): did not reveal any significant difference | mean water intake ([5]; T27, whatever the phase): no significant difference | mean water intake ([5]; section On T15 (text prints T14), whatever the phase): no significant difference | final reduction in BW ([6]; 0.2 mg/kg BID SC x 4 W, vs controls): 10% | delta body weight ([6]; 0.2 mg/kg BID, vs vehicle, T2, T3, T14-T16, T21): significant decrease in delta body weight | blood glucose levels ([7]; T3): marked decrease in blood glucose levels | decrease in blood glucose levels ([7]; T16 and T28): maintained

From patent US20230090114A1, “METHODS FOR PROMOTING WEIGHT LOSS” (89BIO LTD., priority 2020, published 2023)
